PubChem BioAssay AID504784 – Drosophila RNAi Screening Center – 2011

Screen: 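Search for regulators of lipid droplet storage in oleate-fed fly cells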 (primary screen)
Cell system: Drosophila Kc167 embryonic cells
Reagent: long dsRNA against Drosophila genes, about 250 ng dsRNA per well
Timing: 4 days
Treatment: cells fed 400 µM oleic acid bound to BSA
Measurement: 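Cells imaged and segmented; ratio of lipid droplet area to nuclear area, log-transformed, then normalised as a B-score over the screen; higher means more stored lipid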
Direction: droplet/nuclear area B-score: higher = more stored lipid (overstorage)
The screen tested about 17,000 reagents; shown is an unselected part of those with a known target gene and a result. 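Each column is one replicate's B-score; the combined score over replicates was not deposited, so single values may mislead.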 Reagents against one gene are numbered here. A plus sign joins genes that one reagent is predicted to hit. Further read-outs or replicates are left out here.

| target gene | reagent no. | droplet/nuclear area B-score, replicate 1 | droplet/nuclear area B-score, replicate 2 |
| --- | --- | --- | --- |
| Sgs5bis | 1 | -1.34 | -1.25 |
| lambdaTry | 1 | -0.111 | 0.00252 |
| CG5500 | 1 | -0.152 | -0.804 |
| sip2 (septin interacting protein 2) | 1 | -1.11 | -2.31 |
| Edem2 (ER degradation enhancer, mannosidase alpha-like 2) | 1 | 1.34 | 0.57 |
| CG13084 | 1 | 0.0392 | 1.02 |
| CG3528 | 1 | 1.31 | 0.091 |
| Gpdh3 (Glycerol-3-phosphate dehydrogenase 3) | 1 | -1.6 | -1.56 |
| Gpdh3 (Glycerol-3-phosphate dehydrogenase 3) | 2 | -0.977 | -0.936 |
| CG2519 | 1 | -1.17 | 1.34 |
| CG7133 | 1 | 0.948 | -0.181 |
| CG10183 | 1 | -0.331 | -2.56 |
| Schip1 (Schwannomin interacting protein 1) | 1 | 1.47 | 2.46 |
| Btnd (Biotinidase) | 1 | 0.122 | 0.000189 |
| CG31997 | 1 | 0.0462 | -0.608 |
| CG17359 | 1 | 0.541 | 0.659 |
| alpha-Est4 (alpha-Esterase-4) | 1 | -0.269 | 0.295 |
| CG3703 | 1 | 0.0483 | -0.0249 |
| CG3703 | 2 | 0.0134 | 0.841 |
| CG3703 | 3 | -0.997 | 0.594 |
| Nubp2 (NUBP iron-sulfur cluster assembly factor 2) | 1 | -1.14 | -0.00137 |
| CG13920 | 1 | -0.167 | 0.864 |
| CG5199 | 1 | -1.13 | 2.3 |
| pcm (pacman) | 1 | 0.842 | -1.15 |
| Ir56b (Ionotropic receptor 56b) | 1 | 1.59 | -0.0997 |
| Ufl1 (UFM1 specific ligase 1) | 1 | 0.616 | -1.96 |
| CG6567 + CG42394 | 1 | 0.911 | 0.404 |
| rux (roughex) | 1 | 0.417 | 1.48 |
| E(spl)m3-HLH (Enhancer of split m3, helix-loop-helix) | 1 | 0.645 | 1.13 |
| E(spl)m3-HLH (Enhancer of split m3, helix-loop-helix) | 2 | 0.713 | 1.59 |
| RhoGAP18B (Rho GTPase activating protein at 18B) | 1 | 0.331 | 0.421 |
| RhoGAP18B (Rho GTPase activating protein at 18B) | 2 | -1.9 | 0.244 |
| RhoGAP18B (Rho GTPase activating protein at 18B) | 3 | -3.03 | -2.27 |
| RhoGAP18B (Rho GTPase activating protein at 18B) | 4 | -1.56 | -0.419 |
| RNASEK (Ribonuclease kappa) | 1 | 2.28 | 1.86 |
| SamDC (S-adenosylmethionine decarboxylase) | 1 | 0.262 | 0.669 |
| Wdr82 (WD repeat domain 82) | 1 | 0.817 | 0.325 |
| Wdr82 (WD repeat domain 82) | 2 | -0.948 | -1.55 |
| Uhg3 (U snoRNA host gene 3) | 1 | 0.401 | 0.677 |
| CG3294 | 1 | -0.0299 | 0.409 |
| CG6664 | 1 | 0.673 | -1 |
| CG11247 | 1 | 0.531 | -0.0465 |
| CG11247 | 2 | 0.023 | 0.276 |
| CG13855 | 1 | -0.458 | -1.28 |
| mri (mrityu) | 1 | 0.474 | 0.789 |
| CG12814 | 1 | 1.06 | -1.86 |
| CG12814 | 2 | -1.96 | -1.09 |
| CG6154 | 1 | 0.119 | -0.721 |
| CG9240 | 1 | 2.96 | 6.24 |
| cnc (cap-n-collar) | 1 | 0.529 | 0.175 |
| cnc (cap-n-collar) | 2 | -2.58 | -1.09 |
| cnc (cap-n-collar) | 3 | -0.209 | -0.539 |
| cnc (cap-n-collar) | 4 | -0.136 | -3.51 |
| CG40551 (retired record) | 1 | -1.02 | 1.22 |
| Vps60 (Vacuolar protein sorting 60) | 1 | 0.849 | -0.626 |
| CG6290 | 1 | 0.67 | 0.0552 |
| yem (yemanuclein) | 1 | 0.449 | 0.0522 |
| yem (yemanuclein) | 2 | -0.696 | 2.82 |
| Obp19c (Odorant-binding protein 19c) | 1 | 0.725 | 0.00535 |
| TwdlW (TweedleW) | 1 | 0.576 | 1.19 |
| CG31104 | 1 | -1.17 | -0.322 |
| CG30423 | 1 | 0.00689 | 0.691 |
| CG10097 + CG10096 | 1 | 0.741 | 0.0281 |
| CG10097 + CG10096 | 2 | -0.862 | -0.401 |
| Sod1 (Superoxide dismutase 1) | 1 | -3.09 | -3.01 |
| CG7945 | 1 | -2.37 | -1.09 |
| SMC2 (Structural maintenance of chromosomes 2) | 1 | -0.24 | -0.826 |
| ste24a (prenyl protease type I) | 1 | -1.79 | – |
| Tsp66E (Tetraspanin 66E) | 1 | 0.215 | -0.363 |
| LIMK1 (LIM domain kinase 1) | 1 | -0.617 | 1.64 |
| et (eye transformer) | 1 | -1.31 | 0.34 |
| CNT2 (Concentrative nucleoside transporter 2) | 1 | -0.0613 | -0.483 |
| Hacd1 (3-hydroxyacyl-CoA dehydratase 1) | 1 | -0.00863 | -0.671 |
| mRF1 (mitochondrial translation release factor 1) | 1 | -0.31 | 0.236 |
| RpS10a (Ribosomal protein S10a) | 1 | 0.803 | – |
| Mst87F (Male-specific RNA 87F) | 1 | -0.13 | -0.272 |
| Tbcc (Tubulin-binding cofactor C) | 1 | -0.0927 | 0.493 |
| Taf7 (TBP-associated factor 7) | 1 | -1.15 | -0.494 |
| CG32079 | 1 | -1.35 | 0.197 |
| MESK2 + CG10494 | 1 | 0.192 | 0.596 |
| P5cr-2 (Pyrroline-5-carboxylate reductase-like 2) | 1 | -1.23 | -1.55 |
| ems (empty spiracles) | 1 | 0.034 | 0.458 |
| CG14689 | 1 | -0.231 | -0.126 |

Part of the list above in another layout:
target gene | reagent no. | droplet/nuclear area B-score, replicate 1 | droplet/nuclear area B-score, replicate 2
Sgs5bis | 1 | -1.34 | -1.25
lambdaTry | 1 | -0.111 | 0.00252
CG5500 | 1 | -0.152 | -0.804
sip2 (septin interacting protein 2) | 1 | -1.11 | -2.31
Edem2 (ER degradation enhancer, mannosidase alpha-like 2) | 1 | 1.34 | 0.57
CG13084 | 1 | 0.0392 | 1.02
CG3528 | 1 | 1.31 | 0.091
Gpdh3 (Glycerol-3-phosphate dehydrogenase 3) | 1 | -1.6 | -1.56
Gpdh3 (Glycerol-3-phosphate dehydrogenase 3) | 2 | -0.977 | -0.936
CG2519 | 1 | -1.17 | 1.34
CG7133 | 1 | 0.948 | -0.181
CG10183 | 1 | -0.331 | -2.56
